Hit rate of the full screen: of about 150,000 compounds, about 180 (0.12%) were called active. All entries are inconclusive by the source's own rule. Clear calls are listed elsewhere. Calls follow the shape of the dose curve; as a rule, active = well fitted cell-killing curve with a large enough effect; inconclusive = small, poorly fitted or top-dose-only effect, or effect the other way; inactive = flat fitted curve, though single readings scatter.
test: GF-AFC viability counterscreen for inhibitors of alpha-synuclein gene (SNCA) expression; settings: HEK-293-SNCA-luc viability, GF-AFC fluorescence, 24 h; also: nearly all actives have a fitted effect of over 30% in size
Description: Assay Submitter (PI): Daniel R. Scoles Ph.D.
Department of Neurology, University of Utah, Salt Lake City, Utah
Accumulation of alpha-synuclein is a main underlying pathological feature of Parkinson's disease (PD) and alpha-synucleinopathies, for which lowering expression of the alpha-synuclein gene (SNCA) is a potential therapeutic avenue. Using a cell-based luciferase reporter of SNCA expression we performed a quantitative high throughput screen (qHTS) of 155,885 compounds in dose response. The screening assay was generated using genome editing to insert the luciferase gene downstream and in frame of the SNCA gene in HEK-293 cells (1). A viability counterscreen using GF-AFC was used to eliminate cytotoxic and false positive compounds. […]
Described herein are the results of the GF-AFC viability counterscreen for SNCA inhibitors; inactivity (no decrease in fluorescence signal, not cytotoxic) is the desired output for this assay. […]
7; Detector; Fluorescence; Measure fluorescence with ViewLux microplate reader (PerkinElmer) equipped with 405/10 excitation and 540/25 emission filters. […]
10; Detector; Luminescence; Measure luminescence with ViewLux microplate reader (PerkinElmer) equipped with clear filters. […]
10; Signals were analyzed, and dose-response curves were fit using the Hill equation. […]
Potency is read from the fitted curve at half-maximal effect.

Row | Structure (SMILES) | Potency
1 | CC1=C2[N-][C@@](C)([C@@H]3N=C(C(C)=C4N=C(C=C5N=C1[C@@](C)(CC(N)=O)[C@H]5CCC(N)=O)C(C)(C)[C@H]4CCC(N)=O)[C@](C)(CCC(=O)NC[C@@H](C)OP(=O)([O-])O[C@H]1[C@@H](O)[C@@H](n4cnc5cc(C)c(C)cc54)O[C@H]1CO)[C@H]3CC(N)=O)[C@@](C)(CC(N)=O)[C@@H]2CCC(N)=O.[C-]#N.[Co+3] | inconclusive: 9.37 µM

Source: PubChem BioAssay AID1671193 (National Center for Advancing Translational Sciences (NCATS), 2021)
